PubChem BioAssay AID743121 – NCATS | 2013
The whole screen tested about 26,000 reagents; this is a part drawn at random. 167 of all reagents (0.63%) count as active. 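Calls are per gene from RSA p-values that are not deposited; an individual active-marked siRNA can sensitise only weakly.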 A number with no mark means an inactive call. Reagents against one gene are numbered here.

Purpose: 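Partners whose loss is lethal together with topoisomerase I blockade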 (primary screen)
Cell system: MDA-MB-231 cells, a human breast cancer line
Reagent: single siRNA against human genes, 20 nM siRNA (0.8 pmol per well)
Time to read-out: 120 h (drug added 48 h after transfection, read 72 h later)
Challenge: camptothecin 20 nM (about EC30) for 72 h; vehicle 0.1% DMSO in parallel plates
Read-out: 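Cell viability by ATP luminescence (CellTiter-Glo) as % of non-targeting siRNA wells, and the log2 ratio of viability without drug over viability with camptothecin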
Reading the numbers: log2 vehicle/camptothecin viability: higher = stronger sensitisation to camptothecin; viability with camptothecin and viability without drug: higher = more viable cells
Call rule: 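Each gene scored by redundant siRNA activity (RSA) over its individual siRNA ratios; a gene is called active at p < 0.001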

log2 vehicle/camptothecin viability,viability with camptothecin (% of control),viability without drug (% of control),Gene,reagent no.
-0.129,85.7,78.4,PDE1B,1
-0.0987,93.7,87.5,PDE1B,2
-0.0302,91,89.2,PDE1B,3
-0.373,80.8,62.4,PDE1B,4
-0.637,78,50.1,FGR,1
0.316,11.4,14.2,FGR,2
-0.189,69.7,61.1,FGR,3
-0.601,95,62.6,FGR,4
-0.109,64.3,59.6,TRPA1,1
0.0173,45.1,45.7,TRPA1,2
0.24,73.7,87,TRPA1,3
-0.139,108,98,TRPA1,4
0.224,49.8,58.2,OCA2,1
0.391,55.2,72.3,OCA2,2
0.865,28.3,51.6,OCA2,3
-0.164,116,104,OCA2,4
-0.311,82.7,66.7,PRTFDC1,1
-0.211,87.5,75.6,PRTFDC1,2
0.131,92.7,102,PRTFDC1,3
-0.348,30.5,23.9,PRTFDC1,4
-0.305,114,92,TAS2R38,1
0.741,28.3,47.2,TAS2R38,2
-0.316,35.4,28.5,TAS2R38,3
-0.187,48.1,42.3,TAS2R38,4
0.144,67.9,75.1,DIO3,1
-0.139,21,19,DIO3,2
0.124,69.8,76,DIO3,3
0.0834,89.6,94.9,DIO3,4
-0.921,41.4,21.9,LHPP,1
-0.312,115,92.5,LHPP,2
1.03,17,34.8,LHPP,3
-0.14,110,99.9,LHPP,4

An excerpt from above, showing only “log2 vehicle/camptothecin viability”:
FGR #3 = -0.189
FGR #4 = -0.601
TRPA1 #1 = -0.109
TRPA1 #2 = 0.0173
TRPA1 #3 = 0.24
TRPA1 #4 = -0.139
OCA2 #1 = 0.224
OCA2 #2 = 0.391

The listing continues:
log2 vehicle/camptothecin viability,viability with camptothecin (% of control),viability without drug (% of control),Gene,reagent no.
-0.0947,66.5,62.3,LGI1,1
-0.179,70.1,62,LGI1,2
-0.35,38.2,30,LGI1,3
0.149,83.1,92.1,LGI1,4
-0.00367,73.8,73.6,NR2F6,1
-0.701,88,54.1,NR2F6,2
-0.194,70.3,61.5,NR2F6,3
0.0159,83,83.9,NR2F6,4
0.292,73.3,89.7,PAPSS1,1
-0.558,72.3,49.1,PAPSS1,2
-0.171,113,101,PAPSS1,3
0.643,12.3,19.1,PAPSS1,4
-0.22,105,90.1,MSH2,1
-0.303,99,80.3,MSH2,2
0.0911,47.4,50.5,MSH2,3
1.11,8.61,18.5,MSH2,4
-0.612,68.6,44.8,GDI1,1
-0.664,104,65.7,GDI1,2
-0.31,71.7,57.8,GDI1,3
-0.24,99.9,84.5,GDI1,4
0.0552,99.7,104,ID3,1
-0.00863,105,104,ID3,2
-0.0634,34.5,33,ID3,3
-0.059,97.3,93.4,ID3,4
-0.288,101,82.4,IL9,1
-0.105,56.5,52.6,IL9,2
-0.19,95.1,83.4,IL9,3
-0.634,105,67.9,ACHE,1
-0.291,56.4,46.1,ACHE,2
-0.0434,83.6,81.1,ACHE,3
-0.168,51.1,45.5,ACHE,4
0.281,82.7,100,OPRK1,1
0.0147,102,103,OPRK1,2
-0.302,90.3,73.2,OPRK1,3
-0.467,65.1,47.1,OPRK1,4
-0.00871,44,43.8,P4HTM,1
-0.192,86.9,76,P4HTM,2
-0.834,24.2,13.6,P4HTM,3
-0.256,93.1,78,P4HTM,4
